# Experimental data from the supplement of paper PMC10338343.
# ± gives the standard deviation. The list shows a part of the results, in another mix than the full data. The uncertainty is large for many entries.
# Test system: MIWI (PIWIL1) piRISC loaded with Kctd7 piRNA (30 nt)
# Assay: pre-steady-state target cleavage rate (min^-1); MIWI and MILI are mouse PIWI proteins and EfPiwi is from a freshwater sponge; tags in brackets are library labels; higher = faster piRNA-guided slicing of the target
# Conditions: guide: Kctd7 piRNA 5'p-UGUUAAUCUCUCAGAGAAGGUGACAGUGAU; auxiliary factor: 500 nM mouse GTSF1
# Method: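 Cleave-'n-Seq: a library of target RNAs (target site embedded in constant flanks, ACAGCATTCCGCGTTAGTGATATCCG... 5' flank; DNA-blocked outside the site) at 0.1 nM was incubated with 1 nM active mouse MILI or MIWI piRISC (synthetic 5'-monophosphorylated piRNA guide) with or without 500 nM mouse GTSF1 at 33 °C for 1 min to 16 h. Uncleaved targets were sequenced and normalised to non-target controls, and the pooled three trials were fitted to a burst-and-steady-state model to give the pre-steady-state cleavage rate (min^-1; k3 is constrained to at most 1e-4). Sequence is the target site only; target names encode pairing extent (gX:gY) and contiguous / 1-mismatch / 2-mismatch / bulge geometry. Fits with R² ≤ 0 are excluded.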
row,Sequence,pre-steady-state target cleavage rate
1,UAGUGACAGUGGAAGAGACAGAGAUAUUGA [g6:g11:cont:t1A],0.000212 ± 0.017
2,UAGUGACAGACCUUCUCUGAGACAUUAUCA,0.00173 ± 0.0056
3,UACACUGUCACCUCCUCUGAGAGAUUAACA,0.731 ± 0.026
4,UUCACUGUCACCUUCUCUGAGUGAUUAUGA,0.00308 ± 0.0045
5,UAGUGACACACCUUCUCUGACUCAUAUUGA,0.000131 ± 0.028
6,AUCUCUGUCACCUUCUCUGAGAGAUUUUGA,0.191 ± 0.042
7,UAGUGACAGACCUUCUCUGAGAGUAAUUGA [g8:g21:cont:t1A],0.000558 ± 0.013
8,UAGUGACAGUGGAAGAGACAGGAGAUUAACA,0.00014 ± 0.044
9,UACACUGUCACCUUCUCUGUCUGAUUAACA,0.00434 ± 0.0053
10,UAGUGACUCACCUUCUCUGAGUGAUUAAGA,0.00298 ± 0.0039
11,UAGACUCAGACCUUCUCUGAGAGAUUUUGA,0.00287 ± 0.0034
12,UAGUGACAGUGGAAGUCUGAGAGAUUAACA,0.000243 ± 0.0083
13,UAGUCUGUCACCUUCUCUGAGUGAUUUACA,0.0221 ± 0.0058
14,UAGACUGUCACUCUUCUCUGAGAGAUUAACA,0.457 ± 0.032
15,UAGUGACAGUGGUGUCUCUGAGAGAUUAACA,0.000158 ± 0.021
16,UAGUGACAGACCUUCUCUGAGACAUAAACA,0.00185 ± 0.0048
17,UAGUGACUCACCUUCUCUGACUCAUAUUGA,0.000153 ± 0.02
18,UAGACUGUCAGGAUCUCUGAGAGAUUAAGA,0.000464 ± 0.014
19,UAGUGACACACCUUCUCUGAGACAUUAUCA,0.00257 ± 0.0035
20,UAGAGUGUCACCUUCUCUGAGAGAUUAACA,0.72 ± 0.035
21,UAGACUGUCACCUUCUCUCUCAGAUUAACA,0.000632 ± 0.0055
22,UACACUGUGUGCUUCUCUGAGAGAUUAUGA,0.000632 ± 0.01
23,UAGUGACAGUGCUGCUCUGAGAGAUUAACA,0.00147 ± 0.0029
24,UAGUGACAGACCUUCUCUGACUGAUUAACA,0.000555 ± 0.012

# A portion of the results above:
row,Sequence,pre-steady-state target cleavage rate
10,UAGUGACUCACCUUCUCUGAGUGAUUAAGA,0.00298 ± 0.0039
11,UAGACUCAGACCUUCUCUGAGAGAUUUUGA,0.00287 ± 0.0034
12,UAGUGACAGUGGAAGUCUGAGAGAUUAACA,0.000243 ± 0.0083

# Additional entries:

row,Sequence,pre-steady-state target cleavage rate
1,UAGUGACUCACCCUCUCUGAGAGAUUAACA,0.415 ± 0.045
2,UAGUGACUCACCUUCUCUGAGAGAUUAACC [g2:g23:cont:t1C],0.303 ± 0.032
3,UAGUGACAGUGCUUGUCUGAGAGAUAAACA,0.00155 ± 0.0059
4,UACACUGUCACCUUCUCACUGAGAUUAUGA,0.00129 ± 0.012
5,UAGUGACAGUGCUUCUCUUGAGAGAUUAACA,0.000327 ± 0.019
6,UAGUGACAGACCUUCUCUGAGACUUUAUGA,0.000476 ± 0.015
7,UAGUGACAGUCCUACUCUGAGAGAUAAACA,0.00262 ± 0.0029
8,UAGUGUGUCACCUUCUCUGUCUCUAAUUGA [g12:g25:cont:t1A],0.00217 ± 0.006
9,UAGUGACAGACCUUGUCUGAGAGAUUUUGA,0.000909 ± 0.01
10,UAGUGUGUCACCUUCUCUGUCAGAUUAAGA,0.000257 ± 0.03
11,UAGUGACAGACCUUCUCAGACAGAUUAACA,0.00229 ± 0.0059
12,UUCACUGUCACCAUCUCUGAGAGAUUAACA,0.738 ± 0.029
13,UAGUGACACACCUUCUCUCAGAGAAUAACA,0.00392 ± 0.004
14,UAGUGACAGUGCUUGUCUGAGAGAUUAUCA,0.00134 ± 0.0078
15,AUCACUGUCACCUUCUCACUGAGAUUUUGA,0.00308 ± 0.0052
16,UAGUGACAGAGGUUCUCUGAGAGAUUAACA,0.000644 ± 0.0053
17,UAGUGACAGUGCAUCUCUCAGAGAUUAACA,0.000646 ± 0.011
18,UAGUGACAGUGCAUCUCUGAGAGUUUAACA,0.00137 ± 0.0049
19,UACACUGUCACCUUCUGACAGAGAUUAUGA,0.00107 ± 0.0092
20,UAGACUGUCACCUUCUCUGUGAGAUUUUGA,0.0048 ± 0.0033
21,UAGUGUGAGUCCUUCUCUGAGAGAUUUUGA,0.00289 ± 0.0033
22,UAGUGACACACCUUCUCUGACAGAUUAUGA,0.000848 ± 0.0093
23,UAGACUGAGUCCUUCUCUGAGAGAUAUUGA,0.000514 ± 0.0097
24,UAGUGAGUCACCUUCUCUGACUGAUUUUGA,0.000797 ± 0.0099

row,Sequence,pre-steady-state target cleavage rate
1,UUCACUGUCACCUUCUCUGAAGAGAUUAACA,0.019 ± 0.0081
2,UAGUGACAGACCUUCUCUGAGAGUAUAUGA,0.000876 ± 0.0081
3,UAGUGACAGACCUACUCUGAGUGAUUAACA,0.00345 ± 0.004
4,UAGUGUGUCACGAACUCUGAGAGAUUUUGA,0.000136 ± 0.036
5,AUCACUGUCUGCUUCUCUGAGAGAUUAACA,0.74 ± 0.042
6,UACACUGUGUGCUUCUCUGAGAGAUAUUGA,0.000181 ± 0.027
7,UAGUGACAGUGGAAGACUGAGUCAUUAACA,0.000193 ± 0.016
8,UACACUGUCACCUUGAGUGAGAGAUUAACA,0.0042 ± 0.0057
9,UAGUGACACACCUUCUCACAGAGAUUUUGA,0.000673 ± 0.015
10,UAGUGACAGUGGAAGAGACUCAGAUUAACC [g2:g9:cont:t1C],0.000695 ± 0.0077
11,UAGUGACUCACCUUCUCUCUGAGAUUUUGA,0.000489 ± 0.018
12,UAGUGACACAGGAUCUCUGAGAGAUUAAGA,0.000169 ± 0.027
13,UAGUGACAGACCUACUCUCAGAGAUUAACA,0.0013 ± 0.0089
14,UAGUCUGUCACCUUCUCUGUCUGAUUAAGA,0.00385 ± 0.0059
15,UAGUGACUCACCUUCUCUGAGAGAAAUAGA,0.00273 ± 0.004
16,UAGUGACAGUGGAAGAGACACUCAUUAACA,0.000186 ± 0.017
17,UAGACUGUCACCUUCUCUGAGACAUAUUGA,0.000412 ± 0.0095
18,UAGUGACAGUGGAAGAGAGAAGAUUAACA,0.000145 ± 0.026
19,UAGUGACAGACCUUGUCUGAGAGAAUAACA,0.00181 ± 0.0057
20,UAGUGACAGUGCUUCUGUGAGAGAUUUACA,0.00329 ± 0.0039
21,UUCACUAGUCACCUUCUCUGAGAGAUUAACA,0.708 ± 0.032
22,UAGAGUGUCACCUUCUCUGAGAGAUAAACA,0.362 ± 0.038
